In patent US20220411495A1, “POSITIVE ALLOSTERIC MODULATORS OF THE CALCIUM-SENSING RECEPTOR” (VIB VZW, priority 2019, published 2022):
No constants are given. Whether binding was seen depends on the method and setting. Some results given as binding are weak or reduced against the parent protein; the word gives no strength.

How the values were obtained:
[1] = target: T1, isolated purified extracellular 'Venus flytrap domain' of CaSR (UniProt P41180); assay: surface plasmon resonance (added at time 0, washed away at 120 sec)
T1 sequence (looked up): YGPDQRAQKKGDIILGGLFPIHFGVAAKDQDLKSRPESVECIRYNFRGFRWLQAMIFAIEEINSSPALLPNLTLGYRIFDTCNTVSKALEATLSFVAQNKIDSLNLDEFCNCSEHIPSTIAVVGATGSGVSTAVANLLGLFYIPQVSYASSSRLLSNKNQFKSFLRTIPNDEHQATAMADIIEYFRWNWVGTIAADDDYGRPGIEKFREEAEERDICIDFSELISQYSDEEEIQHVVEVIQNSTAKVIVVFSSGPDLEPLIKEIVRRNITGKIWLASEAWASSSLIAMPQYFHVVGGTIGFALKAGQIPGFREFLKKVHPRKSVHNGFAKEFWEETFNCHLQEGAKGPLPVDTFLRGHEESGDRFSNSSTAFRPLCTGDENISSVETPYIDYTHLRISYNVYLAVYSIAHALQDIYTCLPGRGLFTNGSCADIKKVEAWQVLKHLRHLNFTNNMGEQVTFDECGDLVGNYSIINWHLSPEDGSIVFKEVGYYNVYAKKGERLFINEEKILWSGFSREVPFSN

[2] = target: T1, isolated purified extracellular 'Venus flytrap domain' of CaSR; assay: surface plasmon resonance

B1: CaSR Nb4 (VHH)
VHH: QVQLVESGGGLVQAGGSLRLSCAASGRTFSTYRMGWFRQGLGKEREFVAAITANGVRTFYTDSVKGRFTISRDNAKNTLYLQMNSLQPDDTAVYLCAARRKGIFTVQQAQDITDWDYWGQGTQVTVSS
**Q.** Which binding [1] does the source give for B1 here?
**A.** The binding was “binds”.

**Q.** What about the binding [2] of the same binder?
**A.** The binding was “binds”.
